Some of the results follow. Most entries show no effect beyond the scatter of the controls.
The targets below were run with Cc1nc(Nc2ncc(C(=O)Nc3c(C)cccc3Cl)s2)cc(N2CCN(CCO)CC2)n1 [dasatinib] (assay: log2 fold change of tryptic peptide abundance, ligand vs vehicle (limited proteolysis) (log2 ratio); higher = more trypsin-susceptible (destabilized)). Settings: ligand concentration: 5 uM; sample: K562 cleared lysate.

Amino acid sequences for entries named in this document (tags omitted). A change or cut given only in a name is not applied to a line headed by its entry.
UniProt O95782: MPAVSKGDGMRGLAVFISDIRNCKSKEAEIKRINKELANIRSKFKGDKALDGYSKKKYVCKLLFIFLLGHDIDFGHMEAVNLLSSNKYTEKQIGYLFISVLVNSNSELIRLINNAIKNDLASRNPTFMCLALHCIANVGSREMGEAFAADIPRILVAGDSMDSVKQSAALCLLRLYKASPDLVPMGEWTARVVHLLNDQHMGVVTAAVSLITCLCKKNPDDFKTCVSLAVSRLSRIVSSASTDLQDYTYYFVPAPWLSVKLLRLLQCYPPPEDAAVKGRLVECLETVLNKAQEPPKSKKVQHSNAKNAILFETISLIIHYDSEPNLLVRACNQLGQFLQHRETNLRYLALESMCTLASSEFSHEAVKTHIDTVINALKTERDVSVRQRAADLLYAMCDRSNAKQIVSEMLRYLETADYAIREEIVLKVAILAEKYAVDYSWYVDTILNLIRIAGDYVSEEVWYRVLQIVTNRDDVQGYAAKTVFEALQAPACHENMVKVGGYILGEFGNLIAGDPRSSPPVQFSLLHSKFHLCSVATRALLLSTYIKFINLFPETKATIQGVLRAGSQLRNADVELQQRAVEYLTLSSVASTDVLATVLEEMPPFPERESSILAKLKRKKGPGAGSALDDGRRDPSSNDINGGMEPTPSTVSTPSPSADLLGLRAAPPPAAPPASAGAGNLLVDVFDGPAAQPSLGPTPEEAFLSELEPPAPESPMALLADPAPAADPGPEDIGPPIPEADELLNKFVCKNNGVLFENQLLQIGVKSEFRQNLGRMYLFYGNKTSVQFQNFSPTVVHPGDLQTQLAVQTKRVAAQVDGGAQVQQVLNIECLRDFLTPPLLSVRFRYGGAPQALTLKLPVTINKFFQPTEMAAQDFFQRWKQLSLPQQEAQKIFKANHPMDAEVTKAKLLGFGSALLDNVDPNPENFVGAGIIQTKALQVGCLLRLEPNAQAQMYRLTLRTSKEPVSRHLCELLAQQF
UniProt O75691: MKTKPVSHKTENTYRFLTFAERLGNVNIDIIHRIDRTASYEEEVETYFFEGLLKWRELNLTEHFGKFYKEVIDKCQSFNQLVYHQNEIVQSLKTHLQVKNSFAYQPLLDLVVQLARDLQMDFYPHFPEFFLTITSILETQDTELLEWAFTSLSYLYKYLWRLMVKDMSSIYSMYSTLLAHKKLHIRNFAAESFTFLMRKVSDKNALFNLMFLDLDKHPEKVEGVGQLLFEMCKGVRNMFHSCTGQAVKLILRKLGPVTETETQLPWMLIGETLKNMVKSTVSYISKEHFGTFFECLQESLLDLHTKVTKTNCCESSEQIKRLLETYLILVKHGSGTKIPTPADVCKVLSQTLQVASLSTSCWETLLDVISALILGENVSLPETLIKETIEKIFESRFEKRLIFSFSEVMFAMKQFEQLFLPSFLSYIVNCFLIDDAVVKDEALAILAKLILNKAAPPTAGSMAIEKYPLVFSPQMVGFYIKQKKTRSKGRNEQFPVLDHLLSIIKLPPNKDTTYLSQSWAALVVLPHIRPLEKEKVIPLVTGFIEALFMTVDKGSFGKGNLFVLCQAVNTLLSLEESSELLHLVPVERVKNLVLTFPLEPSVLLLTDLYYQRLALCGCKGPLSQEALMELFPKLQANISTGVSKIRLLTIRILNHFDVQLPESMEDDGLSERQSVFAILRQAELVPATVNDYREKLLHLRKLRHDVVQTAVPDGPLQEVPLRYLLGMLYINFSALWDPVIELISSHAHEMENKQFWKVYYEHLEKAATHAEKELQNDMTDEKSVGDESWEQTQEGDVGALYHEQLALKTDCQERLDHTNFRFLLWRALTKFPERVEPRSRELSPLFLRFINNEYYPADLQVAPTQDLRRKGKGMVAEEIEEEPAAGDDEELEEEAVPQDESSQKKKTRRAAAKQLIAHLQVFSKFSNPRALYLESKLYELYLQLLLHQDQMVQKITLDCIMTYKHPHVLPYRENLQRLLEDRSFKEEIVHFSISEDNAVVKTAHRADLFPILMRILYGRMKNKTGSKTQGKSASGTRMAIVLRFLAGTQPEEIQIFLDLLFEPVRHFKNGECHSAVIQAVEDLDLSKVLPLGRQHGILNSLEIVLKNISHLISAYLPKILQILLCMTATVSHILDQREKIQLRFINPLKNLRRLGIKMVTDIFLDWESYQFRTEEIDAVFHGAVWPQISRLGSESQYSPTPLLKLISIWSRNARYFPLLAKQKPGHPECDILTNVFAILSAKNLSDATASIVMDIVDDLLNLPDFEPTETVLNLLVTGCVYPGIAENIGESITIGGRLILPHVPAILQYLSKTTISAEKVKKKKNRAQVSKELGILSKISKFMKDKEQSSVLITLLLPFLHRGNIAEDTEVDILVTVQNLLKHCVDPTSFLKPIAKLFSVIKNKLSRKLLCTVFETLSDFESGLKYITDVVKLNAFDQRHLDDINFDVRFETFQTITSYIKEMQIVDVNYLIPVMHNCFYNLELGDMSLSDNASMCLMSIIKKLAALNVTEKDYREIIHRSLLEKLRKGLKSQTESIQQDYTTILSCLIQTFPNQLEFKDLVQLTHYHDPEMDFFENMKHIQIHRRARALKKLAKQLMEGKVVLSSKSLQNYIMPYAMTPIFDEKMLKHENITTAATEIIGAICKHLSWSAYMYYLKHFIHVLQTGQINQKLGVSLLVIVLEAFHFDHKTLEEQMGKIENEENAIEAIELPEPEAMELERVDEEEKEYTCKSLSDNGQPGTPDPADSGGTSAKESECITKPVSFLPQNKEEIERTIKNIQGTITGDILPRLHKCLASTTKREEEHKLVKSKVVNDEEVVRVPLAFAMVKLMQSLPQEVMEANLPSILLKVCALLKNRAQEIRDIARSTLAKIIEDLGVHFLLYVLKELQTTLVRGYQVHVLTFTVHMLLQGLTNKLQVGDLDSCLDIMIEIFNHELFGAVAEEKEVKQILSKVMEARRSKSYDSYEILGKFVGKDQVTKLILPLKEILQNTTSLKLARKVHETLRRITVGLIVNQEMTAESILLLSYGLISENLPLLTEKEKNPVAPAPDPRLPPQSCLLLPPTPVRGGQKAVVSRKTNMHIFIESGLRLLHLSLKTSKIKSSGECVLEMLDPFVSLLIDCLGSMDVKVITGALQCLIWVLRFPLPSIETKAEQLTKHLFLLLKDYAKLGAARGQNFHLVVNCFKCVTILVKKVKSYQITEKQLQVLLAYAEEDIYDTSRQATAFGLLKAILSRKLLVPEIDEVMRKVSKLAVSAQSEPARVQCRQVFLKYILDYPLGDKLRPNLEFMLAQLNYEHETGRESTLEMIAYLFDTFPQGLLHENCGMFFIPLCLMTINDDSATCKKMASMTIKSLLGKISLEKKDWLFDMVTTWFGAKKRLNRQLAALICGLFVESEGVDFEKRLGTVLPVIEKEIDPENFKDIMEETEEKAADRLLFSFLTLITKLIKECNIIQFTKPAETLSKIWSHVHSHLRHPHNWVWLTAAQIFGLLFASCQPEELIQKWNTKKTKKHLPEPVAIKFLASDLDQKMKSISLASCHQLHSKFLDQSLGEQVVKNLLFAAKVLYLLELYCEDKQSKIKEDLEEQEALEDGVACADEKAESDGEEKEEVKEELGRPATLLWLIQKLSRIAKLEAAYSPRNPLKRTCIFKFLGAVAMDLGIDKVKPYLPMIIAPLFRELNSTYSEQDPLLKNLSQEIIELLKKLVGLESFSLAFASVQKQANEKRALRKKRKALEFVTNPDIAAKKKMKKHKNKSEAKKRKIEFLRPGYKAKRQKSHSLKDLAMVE
UniProt O95521: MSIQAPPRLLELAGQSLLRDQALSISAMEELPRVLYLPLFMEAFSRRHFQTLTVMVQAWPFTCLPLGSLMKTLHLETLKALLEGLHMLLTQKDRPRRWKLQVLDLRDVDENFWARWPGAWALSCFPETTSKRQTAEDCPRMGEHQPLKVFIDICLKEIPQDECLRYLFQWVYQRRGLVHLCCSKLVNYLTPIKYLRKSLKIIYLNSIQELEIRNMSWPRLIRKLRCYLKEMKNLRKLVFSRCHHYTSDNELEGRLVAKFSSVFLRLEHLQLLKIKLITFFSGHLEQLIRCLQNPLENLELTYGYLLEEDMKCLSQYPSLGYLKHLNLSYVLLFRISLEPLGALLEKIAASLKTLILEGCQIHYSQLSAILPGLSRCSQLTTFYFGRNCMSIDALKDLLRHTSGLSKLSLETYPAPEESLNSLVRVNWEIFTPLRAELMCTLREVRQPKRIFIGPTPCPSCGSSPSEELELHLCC
UniProt O95202: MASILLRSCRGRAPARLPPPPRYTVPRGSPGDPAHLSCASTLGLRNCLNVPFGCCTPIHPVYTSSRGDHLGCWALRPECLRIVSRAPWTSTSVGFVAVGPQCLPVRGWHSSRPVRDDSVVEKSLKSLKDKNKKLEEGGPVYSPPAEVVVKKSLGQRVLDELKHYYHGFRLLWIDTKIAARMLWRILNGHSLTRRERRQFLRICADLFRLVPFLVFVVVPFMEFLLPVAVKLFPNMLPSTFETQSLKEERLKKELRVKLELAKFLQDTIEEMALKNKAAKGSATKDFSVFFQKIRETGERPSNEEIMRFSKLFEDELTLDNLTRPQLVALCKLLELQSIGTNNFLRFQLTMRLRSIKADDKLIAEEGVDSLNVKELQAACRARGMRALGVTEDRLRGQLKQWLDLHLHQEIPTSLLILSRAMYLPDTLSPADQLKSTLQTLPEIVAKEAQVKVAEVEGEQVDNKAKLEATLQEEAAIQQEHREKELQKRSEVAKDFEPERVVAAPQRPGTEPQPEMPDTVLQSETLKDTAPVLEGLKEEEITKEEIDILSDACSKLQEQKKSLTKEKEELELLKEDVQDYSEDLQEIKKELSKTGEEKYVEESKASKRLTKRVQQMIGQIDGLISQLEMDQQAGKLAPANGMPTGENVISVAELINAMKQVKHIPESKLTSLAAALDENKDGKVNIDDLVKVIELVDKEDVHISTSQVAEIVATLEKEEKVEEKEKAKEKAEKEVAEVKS
UniProt O75648: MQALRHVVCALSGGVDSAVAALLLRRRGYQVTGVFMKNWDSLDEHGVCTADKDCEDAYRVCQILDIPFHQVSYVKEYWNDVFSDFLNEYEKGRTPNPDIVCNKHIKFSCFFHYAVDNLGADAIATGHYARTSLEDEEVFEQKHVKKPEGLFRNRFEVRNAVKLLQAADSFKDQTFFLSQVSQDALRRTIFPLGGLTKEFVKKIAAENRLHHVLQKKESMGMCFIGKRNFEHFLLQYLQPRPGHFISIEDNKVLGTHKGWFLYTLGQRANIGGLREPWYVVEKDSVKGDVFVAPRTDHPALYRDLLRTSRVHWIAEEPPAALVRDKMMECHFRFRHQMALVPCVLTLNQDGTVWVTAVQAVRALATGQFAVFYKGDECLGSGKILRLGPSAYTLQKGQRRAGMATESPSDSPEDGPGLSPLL
UniProt O94817, whole entry: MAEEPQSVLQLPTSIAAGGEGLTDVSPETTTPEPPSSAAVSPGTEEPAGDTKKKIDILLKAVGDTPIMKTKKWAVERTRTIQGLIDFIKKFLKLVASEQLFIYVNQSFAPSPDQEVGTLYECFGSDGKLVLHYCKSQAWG
UniProt O95749: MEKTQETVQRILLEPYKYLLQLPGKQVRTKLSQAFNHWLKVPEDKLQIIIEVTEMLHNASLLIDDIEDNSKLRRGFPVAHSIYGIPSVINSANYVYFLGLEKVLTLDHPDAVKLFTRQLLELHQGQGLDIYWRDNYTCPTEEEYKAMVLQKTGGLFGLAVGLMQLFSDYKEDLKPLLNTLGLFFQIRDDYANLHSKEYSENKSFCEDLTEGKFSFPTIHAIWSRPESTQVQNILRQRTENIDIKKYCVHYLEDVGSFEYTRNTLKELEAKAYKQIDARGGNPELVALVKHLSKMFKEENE
UniProt O95816: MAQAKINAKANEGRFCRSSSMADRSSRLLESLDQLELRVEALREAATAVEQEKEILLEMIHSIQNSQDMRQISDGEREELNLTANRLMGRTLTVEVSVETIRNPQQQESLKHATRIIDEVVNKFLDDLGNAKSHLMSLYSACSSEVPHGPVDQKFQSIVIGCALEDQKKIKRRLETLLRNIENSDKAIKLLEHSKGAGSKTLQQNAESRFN
UniProt O75575: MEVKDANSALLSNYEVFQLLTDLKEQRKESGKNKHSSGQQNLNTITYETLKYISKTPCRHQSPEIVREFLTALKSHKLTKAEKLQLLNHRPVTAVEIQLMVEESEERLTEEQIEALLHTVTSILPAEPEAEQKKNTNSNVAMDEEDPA

Target | log2 fold change
AP2A1 (peptide sequence: FINLFPETK, peptide start residue: 548) (UniProt O95782) | -0.206
UTP20 (peptide sequence: FLASDLDQK, peptide start residue: 2520) (UniProt O75691) | 0.254
UniProt O95521 (peptide sequence: WKLQVLDLR, peptide start residue: 117) | -0.166
CEP152 (peptide sequence: NEEVPVVIR, peptide start residue: 942) (UniProt O94986) | -0.301
LETM1 (peptide sequence: VNIDDLVK, peptide start residue: 683) (UniProt O95202) | -0.292
TRMU (peptide sequence: TDHPALYR, peptide start residue: 295) (UniProt O75648) | 0.383
ATG12 (peptide sequence: AVGDTPIMK, peptide start residue: 61) (UniProt O94817) | -0.137
GGPS1 (peptide sequence: TQETVQR, peptide start residue: 4) (UniProt O95749) | 0.228
BAG2 (peptide sequence: IIDEVVNK, peptide start residue: 116) (UniProt O95816) | -0.0784
OFD1 (peptide sequence: RLSSTPLPK, peptide start residue: 733) (UniProt O75665) | -0.247
CRCP (peptide sequence: HSSGQQNLNTITYETLK, peptide start residue: 35) (UniProt O75575) | 0.0811

Random excerpt: 2 records from the list.
Target | log2 fold change
AP2A1 (peptide sequence: FINLFPETK, peptide start residue: 548) (UniProt O95782) | -0.206
UniProt O95521 (peptide sequence: WKLQVLDLR, peptide start residue: 117) | -0.166

— the supplement of paper PMC12819154, “High-throughput peptide-centric local stability assay extends protein–ligand identification to membrane proteins, tissues and bacteria” (Nature Structural & Molecular Biology, 2025)
